These results are taken from US8822541B2, “Use of targeted nitroxide agents in mitigating or treating radiation injury” (University of Pittsburgh—Of the Commonwealth System of …, priority 2008, dated 2014).

The data set has as its system Sprague Dawley rats. In words: Survival of rats subjected to volume-controlled hemorrhagic shock. In kind it is in vivo, rat. The method, then:
Survival of rats subjected to volume-controlled hemorrhagic shock. Following surgical preparation and a 5-min stabilization period to obtain baseline readings, rats were subjected to hemorrhagic shock. Bleeding was carried out in 2 phases.
Initially, 21 ml/kg of blood was withdrawn over 20 min. Immediately thereafter, an additional 12.5 ml/kg of blood was withdrawn over 40 min. Thus, hemorrhage occurred over a total period of 60 min and the total blood loss was 33.5 ml/kg or approximately 55% of the total blood volume. Rats were randomly assigned to receive XJB-5-131 (2 μmol/kg) or its vehicle, a 33:67 (v/v) mixture of DMSO and normal saline. XJB-5-131 solution or vehicle alone was administered as a continuous infusion during the last 20 min of the hemorrhage period. The total volume of fluid infused was 2.8 ml/kg and it was administered intravenously using a syringe pump (KD100, KD Scientific, New Hope, Pa.). […] At the end of the 6 hour observation period, animals that were still alive were euthanized with an overdose of KCl.
Blood pressure was recorded continuously using a commercial strain-gauge transducer, amplifier, and monitor (S90603a, SpaceLabs, Redmond, Wash.). Blood samples (0.5 ml) were collected from the jugular vein at the beginning of hemorrhage (baseline), at the end of hemorrhage (shock) and at the end of resuscitation (resuscitation). Hemoglobin concentration [Hb], lactate and glucose concentration were determined using an auto-analyzer (Model ABL 725, Radiometer Copenhagen, Westlake, Ohio).
A total of sixteen rats were tested in this study. Rats were treated with 2.8 ml/kg of vehicle or the same volume of XJB-5-131 solution during the final 20 min of the bleeding protocol. The total dose of XJB-5-131 infused was 2 μmol/kg. Following profound hemorrhagic shock consistent with the protocol described above for the prior studies, thirteen survived for at least 60 min and received the full dose of either XJB-5-131 solution or the vehicle, a 33:67 (v/v) mixture of DMSO and normal saline. […] None of the between-group differences were statistically significant.

[1] abbreviates: End of first phase of hemorrhage (before treatment).
[2] abbreviates: End of second phase of hemorrhage, 2 μmol/kg iv.

Each structure is given as a SMILES string.

Turning to `CC(C)C[C@@H](/C=C/[C@H](Cc1ccccc1)C(=O)N1CCC[C@H]1C(=O)N[C@H](C(=O)N[C@@H](CCCNC(=O)OCc1ccccc1)C(=O)NC1CC(C)(C)N([O])C(C)(C)C1)C(C)C)NC(=O)OC(C)(C)C` [XJB-5-131], the “Blood Hb concentration” value came out at 12.7 ± 0.3 g/dL (Baseline (before treatment)), 10.7 ± 0.3 g/dL under setting [1] and 9.4 ± 0.3 g/dL under setting [2]. Also, the Blood glucose concentration (Baseline (before treatment)) is on record as 134 ± 4 mg/dL, the Blood glucose concentration under setting [1] is listed as 228 ± 24 mg/dL and the Blood glucose concentration under setting [2] was 201 ± 38 mg/dL.
